Results: PubChem BioAssay AID743255 (National Center for Advancing Translational Sciences (NCATS), 2014)
About 910 (0.23%) of roughly 390,000 compounds were called active. The inconclusive results got no clear call from the source; some entries with a clear call stand among them for comparison. Calls come from the whole dose curve; as a rule, active = well fitted inhibition curve with a large enough effect; inconclusive = small, poorly fitted or top-dose-only effect; inactive = no such curve, though single readings can be large or run the other way. Potencies beside an inconclusive call are fits to weak or partial responses and may not hold up.

Chains of the proteins cited; added tags and fusions are not shown. Lines headed by an entry give the natural chain unless they say otherwise; changes in a name come on top.
UniProt O94782: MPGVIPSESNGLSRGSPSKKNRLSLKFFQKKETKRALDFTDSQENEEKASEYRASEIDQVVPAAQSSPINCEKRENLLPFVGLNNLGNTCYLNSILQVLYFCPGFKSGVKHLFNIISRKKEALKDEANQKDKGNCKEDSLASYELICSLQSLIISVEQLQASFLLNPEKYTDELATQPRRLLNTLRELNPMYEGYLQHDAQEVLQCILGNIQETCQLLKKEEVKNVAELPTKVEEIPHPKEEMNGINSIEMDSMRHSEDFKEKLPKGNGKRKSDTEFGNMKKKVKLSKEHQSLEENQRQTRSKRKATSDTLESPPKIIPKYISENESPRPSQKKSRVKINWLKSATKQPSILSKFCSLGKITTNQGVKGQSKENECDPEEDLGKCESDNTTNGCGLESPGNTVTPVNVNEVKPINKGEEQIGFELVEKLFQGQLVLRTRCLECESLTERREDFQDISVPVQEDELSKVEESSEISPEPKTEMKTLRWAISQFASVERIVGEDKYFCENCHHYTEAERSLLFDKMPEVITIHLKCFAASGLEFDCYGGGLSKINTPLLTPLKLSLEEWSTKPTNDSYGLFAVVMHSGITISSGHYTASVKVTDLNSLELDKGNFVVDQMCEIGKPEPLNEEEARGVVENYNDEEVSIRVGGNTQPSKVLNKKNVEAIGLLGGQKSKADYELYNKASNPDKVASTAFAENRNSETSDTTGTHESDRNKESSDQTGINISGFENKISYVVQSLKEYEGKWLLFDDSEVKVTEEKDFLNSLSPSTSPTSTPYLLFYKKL

Molecular target: Ubiquitin carboxyl-terminal hydrolase 1 (Homo sapiens) (UniProt O94782)
Assay: Inhibitors of USP1/UAF1: Primary Screen; note: nearly all actives have a fitted effect of over 60% in size
Settings: recombinant USP1/UAF1, Ub-Rhodamine cleavage fluorescence; series mostly up to 57.1 µM
Method in brief: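 USP1/UAF1 complex at 1 nM was preincubated with compound for 15 min at room temperature, then Ub-Rho substrate (150nM final) was added. Fluorescence (480/540 nm) was read kinetically, 6 reads every 60 seconds.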
Potency is the fitted concentration of half-maximal effect.

Row | SMILES | Potency
1 | CC(C)(C)c1csc(NC(=O)CCc2ccccc2)n1 | inactive
2 | Clc1cccc(NCc2cn3cccnc3n2)c1 | inconclusive: 14.1 µM [inhibitor, partial curve]
3 | COC(=O)[C@]1(Cc2ccccc2)N[C@H](CN(C)C(=O)Nc2ccc(Cl)cc2)[C@@H]2C(=O)N(C)C(=O)[C@@H]21 | inconclusive: 8.91 µM [inhibitor, single point]
4 | O=C(Cc1c[nH]c2ccccc12)NCc1ccc(Cl)cc1 | inactive
5 | Cc1csc(=N)n1-c1ccc(Cl)cc1 | inconclusive: 25.1 µM [inhibitor, partial curve]
6 | O=C(c1ccc(Br)cc1)N(Cc1ccco1)c1ccccn1 | inconclusive: 7.08 µM [inhibitor, partial curve, poor fit]
7 | CCOC(=O)C1(Cc2cccc(OC)c2)CCCN(C(=O)c2cc(C)[nH]n2)C1 (stereo unspecified) | inconclusive: 5.62 µM [inhibitor, full curve, poor fit]
8 | O=S(=O)(c1c(Cl)cc(Br)cc1Cl)N1CCN(C(=S)NC2CC2)CC1 | inactive
9 | COc1ccc(-c2c(C(F)(F)F)nn(C)c2NC(C)=O)cc1 | inconclusive: 3.98 µM [inhibitor, single point]
10 | COc1ccc(-c2cc(C(=O)NCC3CCCO3)c3ccccc3n2)c(OC)c1 (stereo unspecified) | inconclusive: 17.8 µM [inhibitor, partial curve, poor fit]
11 | Oc1c(Br)cc(Br)cc1C=Nc1cccc2ncccc12 | inconclusive: 39.8 µM [inhibitor, partial curve]
12 | CCOC(=O)C1=CN(Cc2ccco2)S(=O)(=O)N(C)C1c1ccc(F)c(Cl)c1 (stereo unspecified) | inconclusive: 0.1 µM [inhibitor, full curve, poor fit]
13 | Cc1cc(Cl)c2oc(C(=O)N(C)CCCCN3CCOCC3)c(C)c2c1 | inactive
14 | COc1cc(NC(=O)c2ccc(-c3nc(CSc4ccccc4)c(C)o3)cc2)cc(OC)c1 | inconclusive: 44.7 µM [inhibitor, partial curve, poor fit]
15 | CC1=C(C(=O)Nc2ccccc2)C(C(C)C)n2nc(SCc3ccccc3C)nc2N1 (stereo unspecified) | inactive
16 | COC(=O)c1ccccc1NC(=O)Cn1nnc(-c2ccc(OC)cc2)n1 | inconclusive: 35.5 µM [inhibitor, partial curve, poor fit]
17 | CCCCCCSc1ccc([C@@H]2[C@H]3C(=O)N(CC)C(=O)[C@H]3[C@]3(C(=O)OC)CCCCN23)cc1OC | inconclusive: 7.94 µM [inhibitor, full curve, poor fit]
18 | COC(=O)c1c(C(=O)OC)c2c(-c3ccccc3)cc3cccc1n32 | inconclusive: 0.224 µM [inhibitor, full curve, poor fit]
19 | Cc1n[nH]c(C)c1S(=O)(=O)N1CCCC(C(=O)N2CCN(c3ccc(Cl)cc3)CC2)C1 (stereo unspecified) | inactive
20 | CC(=O)Oc1ccc(-c2ccc(C(=O)NCCc3ccc(S(N)(=O)=O)cc3)cc2)cc1 | inconclusive: 7.94 µM [inhibitor, partial curve, poor fit]
21 | Nc1ccccc1SC(CC(=O)c1ccccc1)c1cccc([N+](=O)[O-])c1 (stereo unspecified) | inconclusive: 44.7 µM [inhibitor, partial curve]

Row | SMILES | Potency
22 | CCn1c(C)c(C)c2cc(C(=O)N3CCN(c4ccccc4)CC3)ccc21 | inconclusive: 44.7 µM [inhibitor, partial curve, poor fit]
23 | Cc1ccc(S(=O)(=O)n2c(CN3CCCC(C)C3)nc3ccccc32)cc1 (stereo unspecified) | inconclusive: 0.251 µM [inhibitor, full curve, poor fit]
24 | CCCCCCCCCCOC(=O)Cn1c(COc2ccccc2C)[n+](C)c2ccccc21 | inconclusive: 35.5 µM [inhibitor, partial curve, poor fit]
25 | COc1ccccc1Cc1nc2ccccc2nc1SCC(=O)Nc1c(C)cccc1C | inactive
26 | COc1ccccc1NS(=O)(=O)c1cc(NC(=O)c2ccncc2)ccc1N1CCCC1 | inconclusive: 44.7 µM [inhibitor, partial curve, poor fit]
27 | CCOc1cc(S(=O)(=O)n2nc(C)cc2C)ccc1Br | inconclusive: 44.7 µM [inhibitor, partial curve, poor fit]
28 | O=C(O)Cc1sc(Nc2cccc3ccccc23)nc1-c1ccc(Cl)cc1 | inactive
29 | CNC(=S)N/N=C/c1c2ccccc2c(Cl)c2ccccc12 | inconclusive: 35.5 µM [inhibitor, partial curve, poor fit]
30 | C=CCSC(=S)Nc1c(C)n(C)n(-c2ccccc2)c1=O | inconclusive: 8.91 µM [inhibitor, partial curve]
31 | Cc1cn2c(=O)c(S(=O)(=O)Nc3ccc(OC(F)(F)F)cc3)c(C)nc2s1 | inconclusive: 50.1 µM [inhibitor, partial curve, poor fit]
32 | COc1ccc(-c2noc(CSc3nnc(C)n3-c3ccc(F)cc3)n2)cc1 | inconclusive: 5.62 µM [inhibitor, partial curve, poor fit]
33 | CC(C)C(Sc1nc(-c2ccccc2)cc(-c2ccccc2)c1C#N)C(=O)O (stereo unspecified) | inconclusive: 44.7 µM [inhibitor, partial curve, poor fit]
34 | COc1ccc(-n2cc(-c3ccccc3)c3c(=O)[nH]cnc32)cc1 | inactive
35 | COC(=O)c1cnc(N2CCN(c3ccc(OC)cc3)CC2)c2ccccc12 | inconclusive: 0.447 µM [inhibitor, full curve, poor fit]
36 | Cc1cc(C)n(-c2nc3ccccc3nc2Nc2ccc3[nH]c(=O)[nH]c3c2)n1 | inconclusive: 22.4 µM [inhibitor, partial curve]
37 | CCOC(=O)c1[nH]c(C)c(C(=O)N2CCOCC2)c1C | inconclusive: 28.2 µM [inhibitor, partial curve]
38 | CN(C)C(CNC(=O)c1ccc(S(=O)(=O)Nc2cccc(C(F)(F)F)c2)cc1)c1ccco1 (stereo unspecified) | inactive
39 | Cc1cccc(S(=O)(=O)N(C)C[C@H]2OCc3cnnn3CCCC(=O)N([C@H](C)CO)C[C@@H]2C)c1 | inconclusive: 0.282 µM [inhibitor, full curve, poor fit]
40 | COCCn1c(C)cc(C(=O)CSc2ccc3ccccc3n2)c1C | inconclusive: 79.4 µM [inhibitor, partial curve, poor fit]
41 | O=C(COC(=O)C1=COCCO1)NC(=O)c1ccc(OC(F)F)cc1 | inactive
42 | Cc1cc(Cl)ccc1NC(=O)CSc1nc2c(c(=O)[nH]1)CCC2 | inconclusive: 0.708 µM [inhibitor, full curve, poor fit]

Looked up above.
Potency with `Cc1cn2c(=O)c(S(=O)(=O)Nc3ccc(OC(F)(F)F)cc3)c(C)nc2s1` is entered as inconclusive: 50.1 µM [inhibitor, partial curve, poor fit]
Potency with `COc1ccccc1NS(=O)(=O)c1cc(NC(=O)c2ccncc2)ccc1N1CCCC1` is entered as inconclusive: 44.7 µM [inhibitor, partial curve, poor fit]
Potency with `CCOc1cc(S(=O)(=O)n2nc(C)cc2C)ccc1Br` is entered as inconclusive: 44.7 µM [inhibitor, partial curve, poor fit]

(next part)

Row | SMILES | Potency
43 | C[C@@H]1CN([C@@H](C)CO)C(=O)CCCn2cc(nn2)CO[C@H]1CN(C)S(=O)(=O)c1ccc2c(c1)OCCCO2 | inconclusive: 0.251 µM [inhibitor, full curve, poor fit]
44 | COc1cc2c(cc1OC)-c1cc(Nc3cccc(F)c3)nc(=O)n1CC2 | inconclusive: 3.16 µM [inhibitor, full curve]
45 | CC(C(=O)NCCCN1CCOCC1)n1cccc1C(=O)c1ccccc1 (stereo unspecified) | inactive
46 | CC(=O)c1cccc(NC(=O)c2cccc(NC(=O)c3ccco3)c2)c1 | inconclusive: 31.6 µM [inhibitor, partial curve, poor fit]
47 | COc1cc(C(CC(=O)NCc2ccccc2Cl)N2Cc3ccccc3C2=O)cc(OC)c1OC (stereo unspecified) | inconclusive: 5.62 µM [inhibitor, single point]
48 | COc1cccc(NC(=O)CCNC(=O)Cn2cnc3ccccc3c2=O)c1 | inconclusive: 28.2 µM [inhibitor, partial curve]
49 | COc1ccccc1/C=C/C=N/n1c(-c2n[nH]c3c2CCC3)n[nH]c1=S | inactive
50 | O=S(=O)(NCC(c1cccs1)S(=O)(=O)c1ccccc1)c1ccccc1 (stereo unspecified) | inactive
51 | CCOC(=O)N1CCc2c(sc(NCc3ccc(N(CC)CC)cc3)c2C(=O)Nc2cc(OC)ccc2OC)C1 | inconclusive: 39.8 µM [inhibitor, single point]
52 | CN(C)CCC(=O)c1ccc(F)cc1 | inconclusive: 50.1 µM [inhibitor, partial curve, poor fit]
53 | CCCC1/C(=N/O)CC(c2ccccc2)NC1c1ccccc1 (stereo unspecified) | inconclusive: 50.1 µM [inhibitor, partial curve, poor fit]
54 | COc1ccc(S(=O)(=O)N(C)C[C@H]2OCCCC[C@H](C)Oc3ccc(NC(=O)Nc4ccc(F)cc4)cc3C(=O)N([C@H](C)CO)C[C@H]2C)cc1 | inconclusive: 0.251 µM [inhibitor, full curve, poor fit]
55 | O=C(C1CCC(CNS(=O)(=O)c2ccc(Br)s2)CC1)N1CCN(c2ccc(F)cc2)CC1 (stereo unspecified) | inconclusive: 2.51 µM [inhibitor, partial curve]
56 | C=CCNC(=O)COc1ccc(S(=O)(=O)N2CCCC2)cc1 | inconclusive: 7.08 µM [inhibitor, single point]
57 | CCOc1ccccc1NS(=O)(=O)c1cc2[nH]c(=O)c(=O)[nH]c2cc1C | inconclusive: 0.282 µM [inhibitor, full curve, poor fit]
58 | Cc1ccc(C(=O)CSC2=C(C#N)C(c3ccco3)CC(=O)N2)c(C)c1 (stereo unspecified) | inactive
59 | CC[C@@]1(O)C(=O)OCc2c1cc1n(c2=O)Cc2cc3c(CN(C)C)c(O)ccc3nc2-1 | active: 25.1 µM
60 | CCOC(=O)c1cc(-c2ccc(C)cc2)n(CCCC(=O)Nc2cc(C)ccc2C)c1 | inconclusive: 4.47 µM [inhibitor, partial curve, poor fit]
61 | O=c1oc2cc(Oc3c([N+](=O)[O-])cc(C(F)(F)F)cc3[N+](=O)[O-])ccc2c2c1CCCC2 | inconclusive: 39.8 µM [inhibitor, partial curve]
